Inconclusive results, whose numbers are uncertain, are shown with a selection of clear calls. A potency beside an inconclusive call is a rough fit, not a confirmed value. Activity calls are given as the source filed them. Calls come from the whole dose curve; as a rule, active = well fitted curve in the direction sought with a large enough effect; inconclusive = small, poorly fitted or top-dose-only effect, or another doubt; inactive = no such curve, though single readings can be large or run the other way.
biological target: Single-stranded DNA cytosine deaminase (Homo sapiens) (UniProt Q9GZX7); assay: Confirmatory (Round 2) qHTS assay for inhibitors of Activation Induced Cytidine Deaminase (AID): AID signals; settings: AID deamination FRET-based fluorescence assay with UDG, 4 h; series mostly up to 78.4 µM
Excerpt: Assay Provider (PI) Patricia Gearhart Ph.D. National Institute on Aging National Institute of Health (NIH), Bethesda, MD Assay Provider (PI) Rahul Kohli Ph.D. Perelman School of Medicine University of Pennsylvania, Philadelphia, PA Activation-Induced Deaminase (AID) is a cytosine deaminase which converts cytosine into uracil within stretches of ssDNA. The presence of uracil in DNA initiates a cascade of mutagenic DNA repair to introduce point mutations and DNA double strand breaks. Specific targeting of AID to the immunoglobulin heavy chain loci (Igh) promotes mutagenesis in the antibody variable region for somatic hypermutation (SHM) or switch regions leading to class switch recombination (CSR). However, AID also plays a role in accumulating unnecessary mutations across the genome. Mis-targeting of AID results in the initiation of tumor development and leads to greater drug resistance among cancer cells when continually expressed. To identify an AID inhibitor, a small molecule library will be screened in collaboration with NCATS core facility at NIH. To confirm biological function, inhibitors will be examined in an in vitro murine B-cell activation assay and subsequent secondary validation screens. Top molecules will be further screened to identify inhibitory efficacy against a wild type primary splenocytes assay. Using these approaches, we hope to identify a small molecule with great efficacy and low toxicity for use as a molecular probe to further characterize AID's intricacies, or even as a therapeutic. A FRET based analysis of cytosine deamination, was developed to identify potential inhibitors of AID catalytic activity. This screen has two signal output, Read 1 evaluates the AID inhibition response. The second readout (Read 2) evaluates UDG response and is uses as a counterscreen to exclude false positive inhibitors. Inhibition in AID and inactivity in the UDG signal is the desired outcome for this assay.
PROTOCOL TABLE SEQUENCE No. (e.g., 1, 2, 3, etc.); PARAMETER (e.g., Cells, Incubation, Reagent, etc.); VALUE; DESCRIPTION 1a; Reagent; 3 uL; [4/3x] 1 uM AID/2.67 U/mL UDG 1b; Reagent; 3 uL; 2 U/mL UDG 1c; Reagent; 3 uL; 1 uM AID 2a; Compound; 46 nL; Follow-up plates (0.64 uM - 10 mM) 2b; Control; 46 nL; ATA ([…] - 10 mM) 3; Time; 10 min; incubation at room temperature 4; Reagents; 1 uL; [4x] 250 nM DJC20 / 250 nM DJC23 [Substrate] 5; Time; 4 hr; incubation at room temperature 6; Reagent; 4 uL; [2x] 250 mM NaOH 7; Time; 15 sec; centrifuge at 1000 rpm 8; Time; 30 min; incubation at room temperature 9a; Detection; fluorescence (Read 1: AID); EnVision (PerkinElmer) plate reader, 540 excitation and 590 emission filters 9b; Detection; fluorescence (Read 2: UDG); EnVision (PerkinElmer) plate reader, 560 excitation and 665 emission filters NOTES (numbers refer to sequence above) 1a; Reagents were dispensed in a medium-binding black solid-bottom Greiner plates (789176F) using a BioRptr liquid dispenser. Dispense 3 uL of [4/3x] 1 uM AID (provided by Kohli lab) and [4/3x] 2 U/mL UDG (NEB M0280L) into columns 1, 2, 5 to 48. 1b; Dispense 3 uL of [4/3x] 2 U/mL UDG into column 3. 1c; Dispense 3 uL of [4/3x] 1 uM AID into column 4. 2a; Compound (7-points [uM]: 0.64; 3.2; 16; 80; 400; 2,000; 10,000; […]) double pin-transferred (Dip Factor = 2) using the Kalypsys (Wako USA) pintool equipped with a 1536 pinhead for a final concentration range of 7.32 nM - 114 uM. […]

Sequences of proteins named here, by UniProt entry; tags and fusion partners are left off. A change or cut given only in a name is not applied to a line headed by its entry.
UniProt Q9GZX7: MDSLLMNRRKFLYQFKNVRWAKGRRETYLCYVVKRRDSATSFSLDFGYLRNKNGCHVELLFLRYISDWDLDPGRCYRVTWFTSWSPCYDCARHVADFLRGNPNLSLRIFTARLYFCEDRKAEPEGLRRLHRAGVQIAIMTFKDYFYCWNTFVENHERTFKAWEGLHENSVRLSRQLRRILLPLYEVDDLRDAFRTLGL

Compound	Potency
CC(C)c1ccc2c(c1)c(SC(C)(C)C)c(CC(C)(C)C(=O)O)n2Cc1ccc(Cl)cc1	inconclusive: 50.1 µM [inhibitor, single point]
O=c1cc2nc(-c3ccccc3)nc(SCCOCCOc3ccccc3)n2[nH]1	inconclusive: 70.8 µM [inhibitor, single point]
O=C(O)C1=CC(=C(c2ccc(O)c(C(=O)O)c2)c2ccc(O)c(C(=O)O)c2)C=CC1=O	active: 2.24 µM
COc1ccccc1OCCSc1nc(-c2ccc(C(C)(C)C)cc2)nc2cc(=O)[nH]n12	inconclusive: 44.7 µM [inhibitor, single point]
O=c1cc2nc(-c3ccccc3)nc(SCCCn3ccnc3)n2[nH]1	inactive

Reference: PubChem BioAssay AID1347433 (National Center for Advancing Translational Sciences (NCATS), 2020)
